The other results are listed elsewhere or left out.
Key:
Test in all cases: log2 fold change, soluble protein after heating vs DMSO (PISA); higher = thermal stabilisation; K562 cells, 10 uM, 30 min; active = over 0.2 and 3.5 SD of the protein, either way, in both replicates (recomputed)
[1] = compound: C1=CC=C(C=C1)[C@H](COC2=CC3=C(C=C2)NC(=O)N3)NC(=O)C4=CC=CN(C4=O)CC5=CC(=C(C=C5)F)F
Outline: (§1)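 Soluble protein was defined as the supernatant after 21,000xg for 90 min. It came from K562 cells at 2×10^6 cells/mL given 10 μM compound for 30 min, heated in aliquots for 3 min across 48°C-58°C, pooled, and extracted in PBS with 0.5% NP-40 at 4°C, and was quantified by TMTpro 16plex LC-MS/MS with equalised channel sums. Thermal stability against control samples, from duplicates, is reported as log2 fold change.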

The chains behind the UniProt entries cited, without tags or fusion partners. Where a name states a change or a piece, a line headed by the entry shows the natural chain unless it says otherwise.
UniProt Q08431: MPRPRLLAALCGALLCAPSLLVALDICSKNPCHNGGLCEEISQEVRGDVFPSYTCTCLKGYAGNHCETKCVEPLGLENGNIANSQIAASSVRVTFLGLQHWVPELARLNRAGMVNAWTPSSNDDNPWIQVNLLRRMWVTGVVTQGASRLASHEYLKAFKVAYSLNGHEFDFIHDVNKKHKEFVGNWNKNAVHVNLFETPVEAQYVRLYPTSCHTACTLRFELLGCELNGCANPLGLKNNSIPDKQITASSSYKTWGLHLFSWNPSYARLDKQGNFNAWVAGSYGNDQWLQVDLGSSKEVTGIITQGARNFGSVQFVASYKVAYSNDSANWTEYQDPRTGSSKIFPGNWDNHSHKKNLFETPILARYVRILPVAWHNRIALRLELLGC
UniProt Q9GZU1, whole entry, looked up: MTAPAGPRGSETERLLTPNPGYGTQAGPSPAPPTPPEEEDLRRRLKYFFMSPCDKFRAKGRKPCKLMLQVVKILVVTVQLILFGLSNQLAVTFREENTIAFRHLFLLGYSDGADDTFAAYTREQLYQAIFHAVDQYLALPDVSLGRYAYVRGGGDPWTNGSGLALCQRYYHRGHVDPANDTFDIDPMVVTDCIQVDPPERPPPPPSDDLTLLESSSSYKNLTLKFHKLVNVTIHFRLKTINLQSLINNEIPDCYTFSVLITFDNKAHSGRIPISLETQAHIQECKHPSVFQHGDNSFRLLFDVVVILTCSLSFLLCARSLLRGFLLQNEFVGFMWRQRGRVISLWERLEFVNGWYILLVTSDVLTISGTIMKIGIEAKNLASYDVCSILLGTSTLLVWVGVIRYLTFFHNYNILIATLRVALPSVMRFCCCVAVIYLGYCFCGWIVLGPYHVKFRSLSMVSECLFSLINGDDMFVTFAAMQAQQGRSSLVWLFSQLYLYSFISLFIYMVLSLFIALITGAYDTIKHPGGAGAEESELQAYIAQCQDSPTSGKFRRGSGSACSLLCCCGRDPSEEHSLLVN
UniProt Q14814: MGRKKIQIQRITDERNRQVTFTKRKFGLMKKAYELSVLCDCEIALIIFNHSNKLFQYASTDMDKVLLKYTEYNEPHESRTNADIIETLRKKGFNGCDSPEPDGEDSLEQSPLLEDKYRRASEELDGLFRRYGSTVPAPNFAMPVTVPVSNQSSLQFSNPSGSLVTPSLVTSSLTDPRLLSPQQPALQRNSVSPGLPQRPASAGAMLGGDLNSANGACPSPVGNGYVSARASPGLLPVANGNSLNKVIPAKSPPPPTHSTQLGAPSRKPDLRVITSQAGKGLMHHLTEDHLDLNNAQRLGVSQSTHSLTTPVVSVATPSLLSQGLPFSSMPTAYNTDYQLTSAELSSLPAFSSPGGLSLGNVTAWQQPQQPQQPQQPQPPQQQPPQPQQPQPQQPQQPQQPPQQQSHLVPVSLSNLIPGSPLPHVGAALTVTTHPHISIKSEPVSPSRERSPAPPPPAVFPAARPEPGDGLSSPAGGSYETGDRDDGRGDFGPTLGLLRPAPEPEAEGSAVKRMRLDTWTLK
UniProt P33992: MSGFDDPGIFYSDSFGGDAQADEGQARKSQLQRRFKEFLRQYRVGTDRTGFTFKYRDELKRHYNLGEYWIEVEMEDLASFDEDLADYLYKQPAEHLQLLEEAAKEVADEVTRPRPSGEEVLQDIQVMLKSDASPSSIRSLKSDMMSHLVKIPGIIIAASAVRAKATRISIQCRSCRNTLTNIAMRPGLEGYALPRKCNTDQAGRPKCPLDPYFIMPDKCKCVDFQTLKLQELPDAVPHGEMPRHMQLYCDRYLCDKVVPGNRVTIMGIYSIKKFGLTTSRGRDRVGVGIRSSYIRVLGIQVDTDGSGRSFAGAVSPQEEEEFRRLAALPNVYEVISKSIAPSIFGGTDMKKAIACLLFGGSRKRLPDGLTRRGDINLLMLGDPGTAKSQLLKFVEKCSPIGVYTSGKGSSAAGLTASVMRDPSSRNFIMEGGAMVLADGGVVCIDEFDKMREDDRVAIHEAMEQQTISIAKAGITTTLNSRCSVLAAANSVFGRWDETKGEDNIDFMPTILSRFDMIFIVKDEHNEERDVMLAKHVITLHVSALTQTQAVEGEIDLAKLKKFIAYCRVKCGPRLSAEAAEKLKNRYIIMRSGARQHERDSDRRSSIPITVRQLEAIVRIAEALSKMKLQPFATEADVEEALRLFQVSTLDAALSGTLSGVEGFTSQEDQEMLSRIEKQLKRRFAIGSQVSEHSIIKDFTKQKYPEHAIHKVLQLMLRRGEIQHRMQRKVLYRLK
UniProt P25205: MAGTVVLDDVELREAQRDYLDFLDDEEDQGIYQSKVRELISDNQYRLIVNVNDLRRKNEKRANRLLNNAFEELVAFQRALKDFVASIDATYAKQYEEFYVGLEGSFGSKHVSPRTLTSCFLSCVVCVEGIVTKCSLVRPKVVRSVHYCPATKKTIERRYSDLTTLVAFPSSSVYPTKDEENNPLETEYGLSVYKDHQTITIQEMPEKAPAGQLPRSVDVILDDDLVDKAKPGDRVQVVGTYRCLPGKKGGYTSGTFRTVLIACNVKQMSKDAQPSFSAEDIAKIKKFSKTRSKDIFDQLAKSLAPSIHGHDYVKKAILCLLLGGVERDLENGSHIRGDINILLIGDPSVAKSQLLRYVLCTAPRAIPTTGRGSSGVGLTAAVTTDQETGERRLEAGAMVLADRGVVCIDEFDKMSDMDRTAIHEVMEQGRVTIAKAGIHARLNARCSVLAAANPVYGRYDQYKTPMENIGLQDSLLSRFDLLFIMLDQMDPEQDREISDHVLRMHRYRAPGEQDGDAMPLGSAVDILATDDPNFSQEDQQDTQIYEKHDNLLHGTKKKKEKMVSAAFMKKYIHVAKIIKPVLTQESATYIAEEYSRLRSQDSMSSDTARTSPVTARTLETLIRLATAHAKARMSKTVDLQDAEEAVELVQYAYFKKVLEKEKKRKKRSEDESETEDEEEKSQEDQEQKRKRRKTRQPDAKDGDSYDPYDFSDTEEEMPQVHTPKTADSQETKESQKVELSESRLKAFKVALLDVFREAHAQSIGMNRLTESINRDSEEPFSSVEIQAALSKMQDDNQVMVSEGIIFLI
UniProt Q71SY5: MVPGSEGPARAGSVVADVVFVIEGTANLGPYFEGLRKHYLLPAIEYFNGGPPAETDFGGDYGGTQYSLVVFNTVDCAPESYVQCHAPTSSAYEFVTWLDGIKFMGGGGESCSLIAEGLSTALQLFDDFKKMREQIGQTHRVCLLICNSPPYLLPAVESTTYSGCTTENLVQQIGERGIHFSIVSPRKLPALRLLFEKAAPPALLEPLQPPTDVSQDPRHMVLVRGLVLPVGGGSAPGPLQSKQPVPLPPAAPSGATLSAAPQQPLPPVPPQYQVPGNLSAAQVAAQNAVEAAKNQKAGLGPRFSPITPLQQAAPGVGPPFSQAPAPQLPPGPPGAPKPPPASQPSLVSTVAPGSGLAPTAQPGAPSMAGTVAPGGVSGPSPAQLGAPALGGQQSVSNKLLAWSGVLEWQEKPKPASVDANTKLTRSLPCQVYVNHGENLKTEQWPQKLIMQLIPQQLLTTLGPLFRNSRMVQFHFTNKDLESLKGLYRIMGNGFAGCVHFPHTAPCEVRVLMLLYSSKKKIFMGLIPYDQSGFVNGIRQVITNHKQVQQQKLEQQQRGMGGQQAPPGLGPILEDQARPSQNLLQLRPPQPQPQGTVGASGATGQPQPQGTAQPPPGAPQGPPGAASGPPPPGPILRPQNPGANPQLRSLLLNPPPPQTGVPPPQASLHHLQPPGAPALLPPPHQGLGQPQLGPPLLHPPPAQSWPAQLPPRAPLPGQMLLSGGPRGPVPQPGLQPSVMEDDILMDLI
UniProt Q9UHV7: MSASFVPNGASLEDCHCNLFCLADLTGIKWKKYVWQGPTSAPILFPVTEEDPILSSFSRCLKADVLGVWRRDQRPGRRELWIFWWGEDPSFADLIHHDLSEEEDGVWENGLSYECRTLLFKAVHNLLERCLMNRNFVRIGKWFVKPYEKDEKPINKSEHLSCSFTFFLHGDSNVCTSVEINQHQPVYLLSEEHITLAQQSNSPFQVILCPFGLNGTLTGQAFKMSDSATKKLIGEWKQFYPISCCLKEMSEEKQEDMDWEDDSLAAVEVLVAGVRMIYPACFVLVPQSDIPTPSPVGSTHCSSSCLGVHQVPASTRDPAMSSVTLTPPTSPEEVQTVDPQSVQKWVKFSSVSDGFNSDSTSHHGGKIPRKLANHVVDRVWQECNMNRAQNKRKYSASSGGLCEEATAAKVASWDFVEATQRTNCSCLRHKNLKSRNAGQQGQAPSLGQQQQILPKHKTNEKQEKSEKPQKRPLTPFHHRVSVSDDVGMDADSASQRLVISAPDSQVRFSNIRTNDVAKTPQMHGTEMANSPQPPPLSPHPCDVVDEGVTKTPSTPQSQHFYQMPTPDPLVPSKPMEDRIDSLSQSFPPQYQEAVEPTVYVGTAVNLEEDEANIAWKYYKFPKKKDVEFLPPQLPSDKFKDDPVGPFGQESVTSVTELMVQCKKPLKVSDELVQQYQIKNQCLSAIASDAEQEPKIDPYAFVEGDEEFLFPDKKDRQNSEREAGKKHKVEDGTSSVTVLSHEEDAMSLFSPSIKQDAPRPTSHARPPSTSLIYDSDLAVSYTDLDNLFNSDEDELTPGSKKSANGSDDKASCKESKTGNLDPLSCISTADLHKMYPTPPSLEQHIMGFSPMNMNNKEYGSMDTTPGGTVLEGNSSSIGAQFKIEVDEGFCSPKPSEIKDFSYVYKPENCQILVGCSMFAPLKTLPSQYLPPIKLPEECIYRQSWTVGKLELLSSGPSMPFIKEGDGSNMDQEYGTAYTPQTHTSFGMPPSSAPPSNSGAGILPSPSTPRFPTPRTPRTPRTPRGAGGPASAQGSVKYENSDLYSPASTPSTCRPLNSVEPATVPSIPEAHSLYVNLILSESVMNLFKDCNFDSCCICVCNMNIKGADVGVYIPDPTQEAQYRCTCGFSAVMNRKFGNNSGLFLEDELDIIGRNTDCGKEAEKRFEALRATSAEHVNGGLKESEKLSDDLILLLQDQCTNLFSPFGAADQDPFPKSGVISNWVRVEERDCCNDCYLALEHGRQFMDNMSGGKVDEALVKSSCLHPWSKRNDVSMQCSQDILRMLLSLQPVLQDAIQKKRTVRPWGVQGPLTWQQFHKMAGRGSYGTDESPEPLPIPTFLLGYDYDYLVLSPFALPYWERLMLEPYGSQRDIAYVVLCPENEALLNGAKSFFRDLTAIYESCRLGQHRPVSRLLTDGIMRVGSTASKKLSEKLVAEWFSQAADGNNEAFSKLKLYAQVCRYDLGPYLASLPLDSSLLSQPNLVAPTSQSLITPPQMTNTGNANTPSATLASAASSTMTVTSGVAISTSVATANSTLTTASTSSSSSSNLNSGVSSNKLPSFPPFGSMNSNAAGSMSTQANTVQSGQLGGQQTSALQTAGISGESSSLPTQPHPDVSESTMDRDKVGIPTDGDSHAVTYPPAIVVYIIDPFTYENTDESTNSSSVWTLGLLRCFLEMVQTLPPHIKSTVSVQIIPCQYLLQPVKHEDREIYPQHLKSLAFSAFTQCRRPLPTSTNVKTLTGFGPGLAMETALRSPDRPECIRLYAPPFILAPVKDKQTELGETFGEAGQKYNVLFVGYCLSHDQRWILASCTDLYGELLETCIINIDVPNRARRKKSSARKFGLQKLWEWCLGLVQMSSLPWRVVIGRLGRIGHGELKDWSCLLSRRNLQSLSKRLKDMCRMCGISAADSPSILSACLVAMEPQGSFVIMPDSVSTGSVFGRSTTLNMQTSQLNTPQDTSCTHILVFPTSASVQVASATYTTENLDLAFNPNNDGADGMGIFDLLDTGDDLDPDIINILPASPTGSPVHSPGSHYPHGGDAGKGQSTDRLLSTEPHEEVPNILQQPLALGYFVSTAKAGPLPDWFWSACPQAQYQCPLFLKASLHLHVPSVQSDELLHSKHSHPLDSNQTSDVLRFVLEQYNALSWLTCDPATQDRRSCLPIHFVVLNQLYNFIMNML
UniProt Q6ZNC8: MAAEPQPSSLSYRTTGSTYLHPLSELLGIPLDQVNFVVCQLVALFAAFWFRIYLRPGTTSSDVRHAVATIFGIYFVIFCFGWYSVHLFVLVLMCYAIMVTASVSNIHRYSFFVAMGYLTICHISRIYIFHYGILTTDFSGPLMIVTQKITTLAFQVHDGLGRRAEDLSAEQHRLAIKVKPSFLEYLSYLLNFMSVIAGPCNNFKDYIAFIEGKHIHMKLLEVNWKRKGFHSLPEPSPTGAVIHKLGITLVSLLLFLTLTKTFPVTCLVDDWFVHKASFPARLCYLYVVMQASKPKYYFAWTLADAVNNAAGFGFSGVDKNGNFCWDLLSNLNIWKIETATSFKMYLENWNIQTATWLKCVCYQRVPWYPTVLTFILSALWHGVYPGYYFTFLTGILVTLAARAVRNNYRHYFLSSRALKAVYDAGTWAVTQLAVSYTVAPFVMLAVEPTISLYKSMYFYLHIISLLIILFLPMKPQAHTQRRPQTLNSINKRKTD

[2] = compound: CC1=C(SC2=C1C(=N[C@H](C3=NN=C(N32)C)CC(=O)N)C4=CC=C(C=C4)Cl)C
Outline: as §1

[3] = compound: CC1=C2C(=CC=C1)N=C(N(C2=O)C3=CC=CC=C3C)CN4C=NC5=C(N=CN=C54)N
Outline: as §1

[4] = compound: Cc1sc2c(c1C)C(c1ccc(Cl)cc1)=N[C@@H](CC(=O)OC(C)(C)C)c1nnc(C)n1-2
Outline: as §1

[5] = compound: c1ccc([C@@H]2C[C@H]2NC2CCNCC2)cc1
Outline: as §1

Measured: log2 fold change

MFGE8 (UniProt Q08431)
inactive: [1] 0.005 | [2] -0.051 | [3] -0.091 | [4] -0.068 | [5] -0.129

MCOLN1 (UniProt Q9GZU1)
inactive: [1] -0.03

MEF2D (UniProt Q14814)
inactive: [1] 0.061 | [2] 0.035 | [3] 0.198 | [4] -0.022 | [5] 0.068

MEAF6 isoform 3 (UniProt Q9HAF1)
inactive: [1] 0.062 | [2] -0.027 | [3] -0.033 | [4] 0.058 | [5] -0.06

MCM5 (UniProt P33992)
inactive: [1] -0.032 | [2] 0.019 | [3] -0.035 | [4] -0.022 | [5] -0.009

MCM3 isoform 2 (UniProt P25205)
inactive: [1] -0.011 | [2] -0.015 | [3] 0.026 | [4] -0.012 | [5] -0.015

METTL26 (UniProt Q96S19)
inactive: [1] 0.047

MED25 isoform 3 (UniProt Q71SY5)
inactive: [1] -0.12 | [2] 0.06 | [3] -0.14 | [4] -0.128 | [5] -0.257

MED13 (UniProt Q9UHV7)
inactive: [1] -0.201 | [2] -0.144 | [3] -0.023 | [4] 0.022 | [5] 0.109

MBOAT1 (UniProt Q6ZNC8)
inactive: [1] 0.06 | [2] 0.007 | [3] 0.05 | [4] -0.214 | [5] 0.025

Reference: the supplement of paper PMC10849652
